The other results are listed elsewhere or left out. Most values lie at the level of the controls, where differences are scatter.
Assays:
ppGalNAc-T3 sensor = assay: T3 sensor activation Q score (MG/GFP ratio z-score vs DMSO controls) (SD units); higher = more sensor activation (inhibition of ppGalNAc-T3 glycosylation); details: HEK293 sensor cells; 10 µM; 6 h
Method: (§1)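 Cells were treated with compound at 10 uM for 6 h, then MG/GFP ratio was read by flow cytometry (10,000 cells per well, duplicate wells). Q = (R - R_neg)/SD_neg relative to DMSO vehicle controls; the signal rises when the glycosyltransferase is inhibited.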

ppGalNAc-T2 sensor = assay: T2 sensor activation Q score (MG/GFP ratio z-score vs DMSO controls) (SD units); higher = more sensor activation (inhibition of ppGalNAc-T2 glycosylation); details: HEK293 sensor cells; 10 µM; 6 h
Method: as §1

Structure (SMILES)	T3 sensor activation Q score (ppGalNAc-T3 sensor)	T2 sensor activation Q score (ppGalNAc-T2 sensor)
CCN(CC)C(=O)C1CCCN(Cc2ccc(Cl)cc2)C1 (configuration not stated)	-0.115	1.27
CNC(=O)c1ccc(NC(=O)Nc2ccccc2)cc1	-0.8	-0.93
COc1ccc(-n2c(C)c([N+](=O)[O-])c3ccc(O)cc32)cc1	0.19	1.25
CCN(CCN(C)C)Cc1ccccc1F	1.82	-0.1
Cc1cccc(OCCCN2CCOCC2)c1	-0.335	0.32
OCc1c(O)cnc2ccccc12	2	0.455
CCN(C1CCCCC1)S(=O)(=O)c1ccc(OC)c(OC)c1	0.12	0.29
CCOc1cc(CN2CCCN(C)CC2)ccc1OC	0.07	-0.125
COc1cc(C)c(CN2CCCN(C)CC2)cc1C	-0.025	-0.56
COc1ccc(NS(=O)(=O)c2ccc(Cl)cc2)cc1	-0.47	0.41
CN(C)C1=C(Nc2cccc(Cl)c2)C(=O)c2ccccc2C1=O	-0.205	-0.935
CC12CC3(C)CC(C)(C1)CC(C(=O)NN)(C2)C3	2.65	-0.51
Cc1ccc2c(c1)C(=O)C(=O)N2	0.3	-0.53
COc1ccc(NC(=O)N2CCN(C)CC2)cc1	0.615	-1.16
NNC(=O)c1cc(-c2ccccc2)n[nH]1	0.275	-0.445
Fc1ccc(CN2CCN(c3ccccn3)CC2)cc1Br	-0.71	-0.045
CCN(CC)c1ccc(Nc2nc(-c3ccccn3)cs2)cc1	-0.325	-0.1
Fc1ccc(CN2CCN(Cc3ccc4c(c3)OCO4)CC2)cc1F	0.095	-0.75
COc1cc(NS(=O)(=O)c2ccc(NC(C)=O)cc2)c(OC)cc1Cl	-0.16	-0.13
CCCCOc1ccc(NC(=O)c2ccc(F)cc2)cc1	0.76	-0.655
CC1CCN(S(=O)(=O)c2ccc(Br)c(C(=O)O)c2)CC1	0.44	-0.685
CC(C)c1ccc(NC(=O)c2ccc(Cl)cc2)cc1	-0.33	-0.32
COc1ccc(Cl)cc1NC(=O)Cc1ccccc1	0.21	-0.33
O=[N+]([O-])c1ccc(S(=O)(=O)Nc2ccc(F)cc2)cc1	0.16	-1.56

Structure (SMILES)	T3 sensor activation Q score (ppGalNAc-T3 sensor)	T2 sensor activation Q score (ppGalNAc-T2 sensor)
O=C1C2C3C=CC(C3)C2C(=O)N1c1nccs1 (configuration not stated)	0.38	-0.245
CC(Oc1ccc(Cl)cc1)C(=O)NN (configuration not stated)	0.165	-0.36
CN1C(=O)C(=O)C(=C(O)c2ccccc2)C1c1ccccc1F (configuration not stated)	0.38	-0.91
O=C(Nc1ccc(-c2ccc([N+](=O)[O-])cc2)cc1)c1ccc(F)cc1	-0.02	0.065
CC1CCN(S(=O)(=O)c2cc(C(=O)O)ccc2Br)CC1	0.65	-0.675
O=C1CC(N2CCOCC2)C(=O)N1c1cccc(Cl)c1 (configuration not stated)	0.95	-0.06
O=S(=O)(O)c1cccc2cccnc12	2.85	1.98
CC(NC(=O)c1ccc(Br)o1)c1ccccc1 (configuration not stated)	0.32	0.175
Cc1ccc(NC2CC(=O)N(c3cccc(Cl)c3)C2=O)cc1 (configuration not stated)	0.29	-0.78
O=C(CCSc1ccccc1)NC1CCCCC1	0.52	-0.475
COc1ccc(Br)cc1CN1CCC(O)CC1	0.27	0.22
Cc1ccccc1CN1CCN(c2ccccn2)CC1	-0.135	-0.65
O=C1Cc2ccccc2C(c2ccccc2Cl)N1 (configuration not stated)	0.185	0.47
Cc1cccc(C)c1OCCCN1CCOCC1	0.16	-0.515
CC(=O)N(C)c1ccc(NC(=O)Nc2ccc(Cl)cc2)cc1	1.23	0.435
C=CCN1C(=O)C(O)=C(C(C)=O)C1c1ccccc1F (configuration not stated)	0.405	0.265
Clc1ccc(CN2CCc3ccccc3C2)cc1Cl	0.405	0.44
O=S1(=O)CCC(N2CCOCC2)C1 (configuration not stated)	2.75	1.03
Cc1ccc(NCC(=O)c2ccc([N+](=O)[O-])cc2)cc1	0.705	-0.155
Cc1cccc(CN(C)C2CCN(C)CC2)c1	0.325	0.55
COc1ccc(CN2CCSCC2)cc1O	-0.01	0.095
COc1ccc(C2C(C(C)=O)=C(O)C(=O)N2CCCO)cc1 (configuration not stated)	-0.61	0.245
COc1ccc(CN2CCc3ccccc3C2)c(OC)c1	0.465	1.06
CC(=O)c1ccc(N2CCN(CC(c3ccccc3)c3ccccc3)CC2)cc1	-0.005	0.265

Entries of single compounds, looked up by structure. Values in the order: T3 sensor activation Q score (ppGalNAc-T3 sensor) | T2 sensor activation Q score (ppGalNAc-T2 sensor)
CCOc1cc(CN2CCCN(C)CC2)ccc1OC as listed: 0.07 | -0.125
O=C1C2C3C=CC(C3)C2C(=O)N1c1nccs1 (configuration not stated) as listed: 0.38 | -0.245
CCN(CC)c1ccc(Nc2nc(-c3ccccn3)cs2)cc1 as listed: -0.325 | -0.1
O=C(CCSc1ccccc1)NC1CCCCC1 as listed: 0.52 | -0.475

Next part.

Structure (SMILES)	T3 sensor activation Q score (ppGalNAc-T3 sensor)	T2 sensor activation Q score (ppGalNAc-T2 sensor)
COc1ccc(CNN)c(OC)c1	0.8	-0.19
OCCSc1nc2ccccc2s1	-0.745	-1.23
CC1=C([N+](=O)[O-])C(c2ccccc2Cl)NC(=O)N1 (configuration not stated)	0.3	-0.03
NC(=O)CC1NC(=O)c2ccccc21 (configuration not stated)	-0.13	1.03
Cc1ccc(S(=O)(=O)Nc2cccc3ccc(-n4nc(C)cc4C)nc23)cc1	-0.32	0.24
O=c1[nH]cnc2scc(-c3cccs3)c12	0.03	-0.715
CC(=O)C1=C(O)C(=O)N(c2ccccn2)C1c1ccccc1 (configuration not stated)	0.425	0.27
NNc1ncnc2sc3c(c12)CCC3	1.1	-0.91
O=C(Nc1ccc(-c2ccccc2)cc1)c1ccccc1Br	-0.355	-1.42
CCOC(=O)N1CCN(Cc2cccc(Cl)c2)CC1	0.135	0.71
CCC(C(=O)Nc1cccc(C)c1C)c1ccccc1 (configuration not stated)	-0.985	1.49
COc1ccc(N2CCOCC2)cc1	0.305	-1.01
C=CCc1ccccc1OCC(=O)NN	0.75	-0.235
CCCCOc1ccc(-c2ncc([N+](=O)[O-])cn2)cc1	0.095	0.205
Cc1ccc2occ(CN3CCN(c4ccccc4F)CC3)c(=O)c2c1	0.15	0.785
Cc1ccc(S(=O)(=O)Nc2c(C)cc(O)c(Br)c2C)cc1	-0.525	-0.835
O=C(O)C12C3C4C1C1C2C3C41C(=O)O (configuration not stated)	0.355	2.1
O=C(O)c1ccc(Br)c(S(=O)(=O)N2CCCCC2)c1	0.475	-0.3
COc1ccc(CNc2ccc3c(c2)CCC3)cc1	0.21	-0.71
Cc1ccccc1NC1CC(C)Nc2c(C)cccc21 (configuration not stated)	0.1	0.07
CC(C)c1ccc(NC(=O)c2cccs2)cc1	-0.075	0.585
O=C(Nc1ccc(F)cc1)Nc1cccc(Br)c1	-0.255	0.915
NC(=O)C1CCN(Cc2ccc(Br)cc2)CC1	0.23	-0.12
COc1ccc2nc(N3CCOCC3)cc(C)c2c1	0.24	-0.195

Structure (SMILES)	T3 sensor activation Q score (ppGalNAc-T3 sensor)	T2 sensor activation Q score (ppGalNAc-T2 sensor)
CC(=O)C1=C(O)C(=O)N(C)C1c1ccc(Cl)cc1 (configuration not stated)	0.43	0.05
Cc1ccc(S(=O)(=O)NCCO)cc1	-0.45	-0.25
CC(=O)C1=C(O)C(=O)N(c2ccc(C)cc2)C1c1ccc(N(C)C)cc1 (configuration not stated)	0.24	-0.21
CC(=O)C1=C(O)C(=O)N(C)C1c1ccc(F)cc1 (configuration not stated)	0.17	-0.465
COc1cc(S(=O)(=O)N2CCC(C)CC2)c(OC)cc1Cl	1.67	0.105
Cc1cccc(OCC(=O)Nc2cc(Cl)ccc2C)c1	1	-0.28
CNC(=O)Nc1ccc(C(=O)O)cc1	1.16	-0.23
COc1ccc(O)c(CN2CCCC(C)C2)c1 (configuration not stated)	0.25	0.515
O=C(Nc1cccc(NC(=O)c2ccccc2Cl)c1)c1cccc(I)c1	0.27	0.125
CC(C)(C)NC(=O)c1ccccc1C(=O)NC(C)(C)C	-0.165	-0.635
CCCNc1nc(OC)nc(OC)n1	-0.625	-0.05
COc1ccc(CNC2CCCCC2C)cc1 (configuration not stated)	0.775	0.61
O=C(NCc1cccnc1)c1ccc(Br)cc1	0.4	0.775
CN(C)c1ccc(C2=NN(C=O)C(c3ccccc3)C2)cc1 (configuration not stated)	-0.3	-0.79
O=S(=O)(NCc1ccccc1)c1ccc(Cl)cc1	0.24	-0.605
Fc1cccc(F)c1CN1CCN(C/C=C/c2ccccc2)CC1	0.14	0.025
Cc1ccc2c(c1)c1c3n2CCCNC3CCC1 (configuration not stated)	0.185	-0.67
O=C1CCCc2nn(-c3ccccc3)nc21	0.03	0.09
COc1ccccc1C(=O)Nc1cc(C(C)C)ccc1O	-0.485	0.125
Cc1ccc(-c2ncccc2O)cc1	-0.875	0.07
c1cc(-c2nnc(-c3ccncc3)o2)ccn1	0.365	-0.72
O=C(CN1CCCC1)N1c2ccccc2C=Cc2ccccc21	0.495	-0.28
O=C(O)CNC(=O)c1ccc(Cl)cc1	-0.37	-0.125
O=[N+]([O-])c1ccc(-c2cn3cc(Br)ccc3n2)cc1	0.345	-0.43

Structure (SMILES)	T3 sensor activation Q score (ppGalNAc-T3 sensor)	T2 sensor activation Q score (ppGalNAc-T2 sensor)
O=C1CN(C(=O)c2ccccc2)C(=O)CN1C(=O)c1ccccc1	-0.03	0.86
c1ccc(OCCN2CCOCC2)cc1	0.165	-0.535
O=[N+]([O-])c1ccccc1CN1CCN(C/C=C/c2ccccc2)CC1	0.48	1.18
CCN(CC)CCN(C)Cc1cccc(C)c1	0.765	-0.54
CCOc1cc(CN2CCN(c3ccccc3OC)CC2)ccc1OC	0.52	-0.655
O=C(NC(=O)c1ccccc1)Oc1ccc(F)cc1	0.465	-0.495
O=c1[nH]c(-c2ccccc2O)nc2ccccc12	2	0.82
O=c1c2ccccc2nc2n1CCS2	0.795	0.425
COc1nc(N(C)C)nc(N(C)C)n1	-0.23	1.4
Cc1ccc(OCCCn2ccnc2)cc1	-0.22	-0.485
COc1ccc(N2CCN(Cc3ccc(Br)s3)CC2)cc1	0.025	-0.01
CCN(CC)S(=O)(=O)c1cc(C(=O)O)ccc1Br	0.08	-1.1
Cc1cc(C)c(OCCn2ccnc2)c(C)c1	0.86	1.99
O=C(O)c1ccc(S(=O)(=O)N2CCOCC2)cc1	2.8	-0.27
CC(C)(C)c1ccc(-c2nc3cc(N)ccc3o2)cc1	0.225	0.715
CCN1CCN(Cc2coc3ccccc3c2=O)CC1	-0.05	-0.18
CC(=O)c1cccc(NC(=O)C(Cc2ccccc2)N2C(=O)c3ccccc3C2=O)c1 (configuration not stated)	-0.025	-0.485
NNC(=O)C(O)c1ccc(Cl)cc1 (configuration not stated)	-0.13	-0.25
O=C(O)c1ccc(S(=O)(=O)N2CCCC2)cc1	0.9	-0.335
Cc1cc(C)c(NS(=O)(=O)Cc2ccccc2)c(C)c1	-0.37	-0.87
